Values quoted from earlier work in patent publication US20130109655A1, “Method for mitigating of Prostaglandin E2 reducing side effects of non-steroidal anti-inflammatory drugs” (priority 2011, published 2013).

Key:
[1] = tested on: radioimmunoassayed prostaglandin E (R-PGE); conditions: naproxen with nicotinic acid; cited from earlier work
[2] = tested on: radioimmunoassayed prostaglandin E (R-PGE); conditions: naproxen before nicotinic acid infusion; cited from earlier work

COc1ccc2cc([C@H](C)C(=O)O)ccc2c1 [naproxen]
effect on the increase in forearm release of R-PGE induced by nicotinic acid [1]: completely blocks | effect on the increase in plasma R-PGE following nicotinic acid [2]: totally abolished
